# Laboratory results published in PubChem BioAssay AID623959 (National Center for Advancing Translational Sciences (NCATS), 2012).
# By UniProt entry, the sequences of proteins in these tests, tags left out.
# UniProt Q8NER1, whole entry, looked up: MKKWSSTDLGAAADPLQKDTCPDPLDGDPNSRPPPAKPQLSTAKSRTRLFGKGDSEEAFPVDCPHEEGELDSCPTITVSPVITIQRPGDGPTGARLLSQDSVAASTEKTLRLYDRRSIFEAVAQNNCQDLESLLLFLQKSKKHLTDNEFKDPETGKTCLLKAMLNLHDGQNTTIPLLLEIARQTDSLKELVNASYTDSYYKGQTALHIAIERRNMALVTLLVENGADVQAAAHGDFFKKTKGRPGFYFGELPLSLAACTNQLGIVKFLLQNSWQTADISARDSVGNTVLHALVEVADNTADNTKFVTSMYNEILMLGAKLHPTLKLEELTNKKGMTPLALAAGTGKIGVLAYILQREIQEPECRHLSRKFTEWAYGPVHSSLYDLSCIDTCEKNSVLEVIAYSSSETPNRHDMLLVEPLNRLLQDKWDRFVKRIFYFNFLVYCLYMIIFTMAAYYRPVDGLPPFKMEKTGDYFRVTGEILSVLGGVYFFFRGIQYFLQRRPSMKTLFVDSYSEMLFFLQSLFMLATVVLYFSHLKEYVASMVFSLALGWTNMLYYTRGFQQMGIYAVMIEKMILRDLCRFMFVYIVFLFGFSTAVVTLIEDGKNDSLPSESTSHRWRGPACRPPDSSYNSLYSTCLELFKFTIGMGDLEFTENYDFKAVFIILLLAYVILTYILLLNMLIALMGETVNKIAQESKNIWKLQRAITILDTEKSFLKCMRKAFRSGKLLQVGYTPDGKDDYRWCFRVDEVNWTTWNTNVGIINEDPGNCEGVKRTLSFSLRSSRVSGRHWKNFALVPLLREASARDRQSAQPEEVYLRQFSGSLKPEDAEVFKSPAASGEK
# Among all 1,400 compounds or so, fewer than 10 were called active. Another 8% or so got no clear call; they are omitted. Calls follow the shape of the dose curve; as a rule, active = well fitted curve in the direction sought with a large enough effect; inconclusive = small, poorly fitted or top-dose-only effect, or another doubt; inactive = no such curve, though single readings can be large or run the other way. Some of the results follow.
# Biological target: Transient receptor potential cation channel subfamily V member 1 (Homo sapiens) (UniProt Q8NER1)
# Test: qHTS Assay for Compounds that Act as Potentiators of the Vanilloid Receptor 1: Hit Validation; also: % of control where 0% means no effect
# Settings: TRPV1-expressing cells, Fluo-8 calcium influx, capsaicin EC20; series mostly up to 42.1 µM; activity change, positive = potentiation: at the top concentration
# Source text: The transient receptor potential ion channel, family V, number 1, (TRPV1) is one of the most important molecular transducers of painful stimuli and a potential target for analgesic drug development. Although recent clinical trials with orthosteric antagonists have not produced a successful drug because of a hyperthermia side effect and their tendency to block thermal noxious pain, this ion channel is undeniably well placed in the pain pathway, and the idea of blocking pain signals before they enter the CNS is an excellent concept and of proven efficacy when TRPV1 agonists are used. We propose a new approach involving allosteric modulation to impose an activity-dependent constraint within the context of inflammation and tissue damage that would alter the responsiveness of the channel in a way that an orthosteric vanilloid antagonist cannot achieve. We believe that the allosteric modulator approach has not been explored for this target. The main goal of this proposal is to identify additional, new, potent allosteric modulators of TRPV1 that can be used to investigate TRPV1 function. Our recent report provides evidence of proof of concept, but the compounds are just at the edge of utility in terms of potency. […] The question of whether they can be used as analgesic agents is complex, but if suitable compounds are identified then testing for analgesic properties will be conducted. Compounds identified as agonists were re-tested in the primary screen for hit validation. NIH Chemical Genomics Center [NCGC] NIH Molecular Libraries Probe Centers Network [MLPCN] MLPCN Grant: MH089480 Assay Submitter (PI): Michael Iadarola, National Institute of Dental and Cranofacial Research
# Upon TRPV1 activation in TRPV1 cells, the channel opens and extracellular cations flow through the channel into the cytosol. A calcium binding dye (Fluo-8) becomes fluorescent when bound to calcium. This dye is pre-loaded into cells and is used as a marker for calcium influx. The amount of accumulated calcium is precisely quantified using the FDSS kinetic reader and the calcium dye. For the HTS assay, freshly prepared cells are plated at a density of 2000/well in 3 ul medium in 1536-well plates and cultured overnight at 35.5C. Cells will be loaded with 1 ul of the homogeneous calcium dye (ABD Bioquest) at room temperature for 40 to 90 minutes. Plates will be loaded into the FDSS kinetic reader and a 1 sec / cycle for 10 second baseline signal will be measured. Compound library will then be added with a pintool at 23 nl and measured kinetically for 3 minutes. This portion of the read is considered the agonist portion of the screen. Following the 3 minutes of incubation, an on board pipettor will deliver 1 ul of capsaicin for a final concentration equal to the EC20. Signal will be measured kinetically for an additional 2 minutes. This portion of the read is considered the allosteric enhancer portion of the screen. The FDSS reader has a standard filter set capable of measuring calcium bound Fluo-8 (ex=480 and em=520 nm).
row,Compound,"activity change, positive = potentiation"
1,COc1ccccc1C(=O)NC(=S)N1CCCc2ccccc21,inactive: -8.09%
2,O=[N+]([O-])c1cc([N+](=O)[O-])c(Oc2cc(F)cc(F)c2)cc1NN1CCCCC1,inactive: -37.5%
3,COc1ccc(C(=O)NCCN2CCOCC2)cc1[N+](=O)[O-],inactive: 2.34%
4,N#CC1=C(SCC(=O)Nc2cccc3cccnc23)NC(=O)C(C#N)C12CCCCC2 (stereo not given),inactive: 21.3%
5,Cc1cccc(NC(=S)NNC(=S)NCc2ccccc2)c1,inactive: 1.76%
6,COc1ccc(OC)c(NC(=O)CCN2C(=O)c3ccccc3C2=O)c1,inactive: 4.29%
7,Fc1ccc(CNC(=S)Nc2ccc(Cl)cc2Cl)cc1,inactive: -36.8%
8,Cc1ccc(S(=O)(=O)Nc2nnc(C3CCCCC3)s2)cc1,inactive: -5.02%
9,COC(=O)[C@@]12CCCCN1[C@H](c1ccc(-c3cc(C(C)=O)cs3)c(OC)c1)[C@H]1C(=O)N(C)C(=O)[C@H]12,inactive: -3.68%
10,CCOc1ccc(-c2cccc(NS(=O)(=O)c3cc([N+](=O)[O-])ccc3Cl)c2)nn1,inactive: 2.27%
11,Cc1ccc(NC(=O)CCn2nc(C)cc2C)cc1,inactive: -6.67%
12,CC(=O)c1ccc(N2CCN(CC3CCCCC3)CC2)cc1,inactive: -9.43%
13,O=C(NCc1cccnc1)c1ccc(-c2ccc(Cl)cc2)o1,inactive: -37.5%
14,CCN(CC(=O)Nc1ccc(N2CCOCC2)cc1)Cc1nc2ccccc2c(=O)[nH]1,inactive: -4.07%
15,CCN1CCN(CC(=O)Nc2nc3ccccc3s2)CC1,inactive: -6.63%
16,CC(C)c1ccc(NC(=O)N2CCC(c3nc4ccccc4o3)CC2)cc1,inactive: -36.5%
17,CCN(CC)S(=O)(=O)c1cccc(C(=O)OCC(=O)c2ccc3c(c2)OCCO3)c1,inactive: 2.85%
18,Fc1ccc(CNC(=S)NCc2ccccc2)cc1,inactive: -38.5%
19,Cc1ccccc1OCC(=O)OCC(=O)Nc1cc(S(C)(=O)=O)ccc1Cl,inactive: -1.87%
20,CC(=O)c1ccc(N2CCN(C(=O)Nc3ccc(C(C)C)cc3)CC2)cc1,inactive: -1.99%
21,NC(=O)c1ccccc1N/C=C/C(=O)c1cccs1,inactive: 11%
22,COC(=O)c1cc(OC)c(OC)cc1N1C(=O)CC(C)(C)CC1=O,inactive: -2.61%
23,CCN(c1ccc(NC(=O)c2ccc(Cl)nc2)cc1)C(C)C,inactive: -39.2%
24,CCN1CCN(Cc2ccc(NC(=O)c3ccc(C)c(NC(=O)c4nccnc4N)c3)cc2C(F)(F)F)CC1,inactive: 5.5%
25,Cc1ccc(C(=O)CCC(=O)Nc2ccccc2F)cc1,inactive: -5.15%
26,C/C(=N\Nc1ccc2nncn2n1)c1ccc(Cl)s1,inactive: -32.9%
27,CCN(CC)S(=O)(=O)c1ccc(/C=C/C(=O)Nc2cccc(F)c2)cc1,inactive: -36.7%
28,O=C(Cc1cccs1)Nc1cccc(-c2ccc3nncn3n2)c1,inactive: 6.87%
29,CCOc1ccc(-c2nnc(NC(=O)C3CCCC3)o2)cc1,inactive: -3.8%
30,COc1cccc(N2CCN(c3nc(C)cc(=O)[nH]3)CC2)c1,inactive: -39%

# Taken from above:
# `Cc1ccc(C(=O)CCC(=O)Nc2ccccc2F)cc1` – activity change, positive = potentiation: inactive: -5.15%
# `CCOc1ccc(-c2nnc(NC(=O)C3CCCC3)o2)cc1` – activity change, positive = potentiation: inactive: -3.8%
